Experimental findings from the supplement of paper PMC12067093, “Discovery and optimisation of a covalent ligand for TRIM25 and its application to targeted protein ubiquitination” (Chemical Science, 2025) are described below.

The chains behind the UniProt entries cited, without tags or fusion partners. Where a name states a change or a piece, a line headed by the entry shows the natural chain unless it says otherwise.
UniProt Q56NI9: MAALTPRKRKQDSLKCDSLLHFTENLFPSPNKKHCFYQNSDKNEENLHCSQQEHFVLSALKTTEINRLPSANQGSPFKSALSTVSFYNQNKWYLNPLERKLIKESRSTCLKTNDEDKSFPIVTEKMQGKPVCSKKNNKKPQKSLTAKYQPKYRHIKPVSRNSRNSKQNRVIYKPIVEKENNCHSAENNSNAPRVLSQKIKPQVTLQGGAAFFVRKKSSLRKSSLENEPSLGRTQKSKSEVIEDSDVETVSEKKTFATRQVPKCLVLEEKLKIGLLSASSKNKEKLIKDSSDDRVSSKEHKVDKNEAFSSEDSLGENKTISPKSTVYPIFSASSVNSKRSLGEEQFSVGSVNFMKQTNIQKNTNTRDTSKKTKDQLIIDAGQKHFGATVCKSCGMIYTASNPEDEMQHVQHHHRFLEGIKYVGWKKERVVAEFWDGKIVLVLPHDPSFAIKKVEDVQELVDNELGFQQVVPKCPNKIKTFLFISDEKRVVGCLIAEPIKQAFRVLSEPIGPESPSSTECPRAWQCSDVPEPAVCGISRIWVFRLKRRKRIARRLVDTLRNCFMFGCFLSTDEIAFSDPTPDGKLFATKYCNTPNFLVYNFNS
UniProt Q8IV48: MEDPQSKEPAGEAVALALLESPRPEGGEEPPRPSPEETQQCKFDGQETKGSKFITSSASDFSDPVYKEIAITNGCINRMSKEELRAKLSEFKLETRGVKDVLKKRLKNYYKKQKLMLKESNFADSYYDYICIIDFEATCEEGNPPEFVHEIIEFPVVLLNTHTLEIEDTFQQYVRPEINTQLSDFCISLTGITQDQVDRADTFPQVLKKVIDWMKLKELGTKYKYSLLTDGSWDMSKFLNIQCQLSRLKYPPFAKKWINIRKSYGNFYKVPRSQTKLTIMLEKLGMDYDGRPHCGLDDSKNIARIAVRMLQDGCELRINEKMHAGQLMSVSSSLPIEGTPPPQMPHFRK
UniProt Q9NQT4, whole entry, looked up: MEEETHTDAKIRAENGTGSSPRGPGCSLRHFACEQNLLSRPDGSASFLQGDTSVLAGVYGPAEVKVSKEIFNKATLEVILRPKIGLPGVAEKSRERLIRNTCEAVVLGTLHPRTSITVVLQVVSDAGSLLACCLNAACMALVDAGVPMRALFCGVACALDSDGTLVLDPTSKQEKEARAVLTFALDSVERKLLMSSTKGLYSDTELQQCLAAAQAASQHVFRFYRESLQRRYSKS
UniProt Q86YB8: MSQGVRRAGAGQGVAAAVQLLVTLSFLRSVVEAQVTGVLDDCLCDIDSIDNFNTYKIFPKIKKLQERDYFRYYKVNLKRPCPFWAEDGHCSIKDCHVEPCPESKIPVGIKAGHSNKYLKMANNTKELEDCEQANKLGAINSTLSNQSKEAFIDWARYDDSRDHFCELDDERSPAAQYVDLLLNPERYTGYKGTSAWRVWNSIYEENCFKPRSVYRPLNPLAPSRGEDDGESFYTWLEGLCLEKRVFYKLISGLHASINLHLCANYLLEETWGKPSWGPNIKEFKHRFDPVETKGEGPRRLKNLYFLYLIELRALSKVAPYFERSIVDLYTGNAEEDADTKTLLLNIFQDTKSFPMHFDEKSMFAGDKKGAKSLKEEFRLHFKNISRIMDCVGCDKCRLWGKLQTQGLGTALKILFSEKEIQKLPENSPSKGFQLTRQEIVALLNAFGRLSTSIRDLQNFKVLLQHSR
UniProt Q15910, whole entry, looked up: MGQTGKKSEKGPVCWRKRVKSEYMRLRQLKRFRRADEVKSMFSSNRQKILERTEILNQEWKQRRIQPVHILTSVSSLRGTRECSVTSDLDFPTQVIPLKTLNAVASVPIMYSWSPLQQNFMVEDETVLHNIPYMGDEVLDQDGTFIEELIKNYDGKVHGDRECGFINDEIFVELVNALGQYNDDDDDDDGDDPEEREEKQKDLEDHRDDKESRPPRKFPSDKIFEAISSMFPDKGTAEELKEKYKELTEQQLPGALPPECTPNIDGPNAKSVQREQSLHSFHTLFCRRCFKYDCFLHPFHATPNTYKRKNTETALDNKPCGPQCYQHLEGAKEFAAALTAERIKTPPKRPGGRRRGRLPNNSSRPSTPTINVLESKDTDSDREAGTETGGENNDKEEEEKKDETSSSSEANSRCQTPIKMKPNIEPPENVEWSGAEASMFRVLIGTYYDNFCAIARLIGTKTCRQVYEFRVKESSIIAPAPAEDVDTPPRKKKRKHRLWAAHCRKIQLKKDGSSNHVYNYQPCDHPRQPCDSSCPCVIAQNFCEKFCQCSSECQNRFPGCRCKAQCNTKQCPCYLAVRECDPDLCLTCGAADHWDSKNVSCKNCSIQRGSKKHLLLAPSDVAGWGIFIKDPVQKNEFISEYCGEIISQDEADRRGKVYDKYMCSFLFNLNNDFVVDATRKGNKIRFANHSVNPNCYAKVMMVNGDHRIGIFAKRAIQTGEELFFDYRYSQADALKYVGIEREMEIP
UniProt Q93063: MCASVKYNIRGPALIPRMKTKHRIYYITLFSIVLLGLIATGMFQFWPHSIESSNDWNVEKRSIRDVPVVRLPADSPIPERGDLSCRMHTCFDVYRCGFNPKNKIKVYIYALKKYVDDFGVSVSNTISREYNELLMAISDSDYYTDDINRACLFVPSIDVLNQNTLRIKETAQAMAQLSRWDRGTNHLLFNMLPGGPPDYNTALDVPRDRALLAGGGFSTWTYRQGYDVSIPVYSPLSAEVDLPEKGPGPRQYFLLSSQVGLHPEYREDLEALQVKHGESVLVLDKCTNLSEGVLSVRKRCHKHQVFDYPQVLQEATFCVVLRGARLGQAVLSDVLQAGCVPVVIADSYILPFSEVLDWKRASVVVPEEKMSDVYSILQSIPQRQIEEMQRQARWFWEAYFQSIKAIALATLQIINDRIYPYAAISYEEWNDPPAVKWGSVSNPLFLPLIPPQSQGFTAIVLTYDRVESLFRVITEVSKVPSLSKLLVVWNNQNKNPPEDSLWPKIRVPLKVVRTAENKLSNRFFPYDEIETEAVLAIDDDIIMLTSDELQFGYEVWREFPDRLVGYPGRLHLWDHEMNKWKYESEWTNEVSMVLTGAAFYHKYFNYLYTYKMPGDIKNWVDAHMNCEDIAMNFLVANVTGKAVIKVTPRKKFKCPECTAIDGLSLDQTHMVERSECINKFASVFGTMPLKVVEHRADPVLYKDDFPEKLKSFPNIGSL
UniProt Q9BS26: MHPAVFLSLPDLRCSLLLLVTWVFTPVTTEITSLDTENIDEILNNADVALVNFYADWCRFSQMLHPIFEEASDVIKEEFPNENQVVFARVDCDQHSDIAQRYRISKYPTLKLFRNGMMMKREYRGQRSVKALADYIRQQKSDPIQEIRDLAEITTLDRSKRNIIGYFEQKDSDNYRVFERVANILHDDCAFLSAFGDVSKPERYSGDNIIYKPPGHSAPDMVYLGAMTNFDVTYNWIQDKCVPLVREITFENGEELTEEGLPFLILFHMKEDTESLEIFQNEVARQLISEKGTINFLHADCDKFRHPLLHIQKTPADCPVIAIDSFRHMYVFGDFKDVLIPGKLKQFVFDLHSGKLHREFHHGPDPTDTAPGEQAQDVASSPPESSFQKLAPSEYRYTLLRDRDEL
UniProt P16930: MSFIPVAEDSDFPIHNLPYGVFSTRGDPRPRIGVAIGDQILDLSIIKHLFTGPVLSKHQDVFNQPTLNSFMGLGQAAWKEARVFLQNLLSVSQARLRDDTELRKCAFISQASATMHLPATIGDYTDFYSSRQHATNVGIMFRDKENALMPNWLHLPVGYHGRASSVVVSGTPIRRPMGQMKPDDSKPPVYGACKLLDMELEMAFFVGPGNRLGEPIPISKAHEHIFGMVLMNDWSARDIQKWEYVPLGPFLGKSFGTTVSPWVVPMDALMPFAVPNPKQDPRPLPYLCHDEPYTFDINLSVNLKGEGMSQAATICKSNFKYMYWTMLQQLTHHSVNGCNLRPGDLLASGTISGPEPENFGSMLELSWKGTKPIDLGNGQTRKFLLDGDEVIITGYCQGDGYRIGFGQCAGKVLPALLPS
UniProt O95571: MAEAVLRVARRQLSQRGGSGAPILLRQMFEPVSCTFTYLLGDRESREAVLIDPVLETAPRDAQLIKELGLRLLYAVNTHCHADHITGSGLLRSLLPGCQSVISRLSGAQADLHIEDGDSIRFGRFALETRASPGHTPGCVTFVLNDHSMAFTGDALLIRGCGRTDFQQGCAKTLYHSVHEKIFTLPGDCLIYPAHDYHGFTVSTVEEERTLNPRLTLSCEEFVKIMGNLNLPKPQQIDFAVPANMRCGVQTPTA
UniProt O00471: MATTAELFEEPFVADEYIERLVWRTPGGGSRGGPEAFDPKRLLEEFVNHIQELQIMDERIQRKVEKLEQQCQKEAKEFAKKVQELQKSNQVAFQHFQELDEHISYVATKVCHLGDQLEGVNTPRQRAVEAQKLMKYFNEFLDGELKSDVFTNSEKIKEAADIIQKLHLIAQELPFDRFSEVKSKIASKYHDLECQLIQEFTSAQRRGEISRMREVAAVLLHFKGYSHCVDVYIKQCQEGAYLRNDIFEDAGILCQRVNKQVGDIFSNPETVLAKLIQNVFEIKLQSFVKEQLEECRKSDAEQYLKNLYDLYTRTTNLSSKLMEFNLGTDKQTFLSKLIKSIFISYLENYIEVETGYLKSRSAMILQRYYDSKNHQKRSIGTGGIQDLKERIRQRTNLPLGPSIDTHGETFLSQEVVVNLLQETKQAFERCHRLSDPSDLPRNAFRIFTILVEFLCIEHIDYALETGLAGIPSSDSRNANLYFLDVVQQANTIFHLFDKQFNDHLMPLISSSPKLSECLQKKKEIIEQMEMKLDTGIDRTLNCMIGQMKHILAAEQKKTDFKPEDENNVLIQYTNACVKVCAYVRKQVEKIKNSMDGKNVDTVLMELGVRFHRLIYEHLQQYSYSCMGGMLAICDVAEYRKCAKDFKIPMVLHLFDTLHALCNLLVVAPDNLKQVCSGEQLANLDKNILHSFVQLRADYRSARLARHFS
UniProt Q5FWF5: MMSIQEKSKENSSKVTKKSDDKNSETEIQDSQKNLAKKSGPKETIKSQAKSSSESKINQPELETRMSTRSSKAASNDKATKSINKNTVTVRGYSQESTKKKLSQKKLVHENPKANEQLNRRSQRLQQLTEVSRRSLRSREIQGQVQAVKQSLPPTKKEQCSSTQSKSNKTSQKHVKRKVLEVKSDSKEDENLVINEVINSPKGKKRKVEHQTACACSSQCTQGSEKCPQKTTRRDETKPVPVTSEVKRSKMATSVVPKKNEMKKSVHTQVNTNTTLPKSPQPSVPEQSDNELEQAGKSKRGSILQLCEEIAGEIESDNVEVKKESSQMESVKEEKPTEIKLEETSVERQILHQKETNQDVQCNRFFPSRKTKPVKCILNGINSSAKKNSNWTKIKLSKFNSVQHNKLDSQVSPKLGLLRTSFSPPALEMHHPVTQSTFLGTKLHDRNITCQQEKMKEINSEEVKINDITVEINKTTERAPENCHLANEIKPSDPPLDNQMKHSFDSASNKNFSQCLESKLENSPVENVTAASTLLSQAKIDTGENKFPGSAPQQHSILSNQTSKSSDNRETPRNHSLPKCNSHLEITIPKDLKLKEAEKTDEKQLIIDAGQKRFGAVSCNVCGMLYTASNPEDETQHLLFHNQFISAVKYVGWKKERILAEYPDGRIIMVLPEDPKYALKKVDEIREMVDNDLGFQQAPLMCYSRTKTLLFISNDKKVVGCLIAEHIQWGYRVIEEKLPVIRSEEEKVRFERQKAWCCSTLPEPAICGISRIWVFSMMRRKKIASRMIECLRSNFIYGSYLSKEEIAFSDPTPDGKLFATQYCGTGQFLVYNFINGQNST
UniProt Q969X5: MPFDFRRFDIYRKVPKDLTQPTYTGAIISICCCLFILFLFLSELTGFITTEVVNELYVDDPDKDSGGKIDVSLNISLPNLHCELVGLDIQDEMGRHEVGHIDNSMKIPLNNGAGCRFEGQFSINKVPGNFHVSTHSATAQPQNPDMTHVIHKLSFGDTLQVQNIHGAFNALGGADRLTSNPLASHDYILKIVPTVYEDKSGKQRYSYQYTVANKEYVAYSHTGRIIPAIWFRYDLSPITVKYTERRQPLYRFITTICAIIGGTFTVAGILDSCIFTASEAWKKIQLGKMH
UniProt Q9Y282: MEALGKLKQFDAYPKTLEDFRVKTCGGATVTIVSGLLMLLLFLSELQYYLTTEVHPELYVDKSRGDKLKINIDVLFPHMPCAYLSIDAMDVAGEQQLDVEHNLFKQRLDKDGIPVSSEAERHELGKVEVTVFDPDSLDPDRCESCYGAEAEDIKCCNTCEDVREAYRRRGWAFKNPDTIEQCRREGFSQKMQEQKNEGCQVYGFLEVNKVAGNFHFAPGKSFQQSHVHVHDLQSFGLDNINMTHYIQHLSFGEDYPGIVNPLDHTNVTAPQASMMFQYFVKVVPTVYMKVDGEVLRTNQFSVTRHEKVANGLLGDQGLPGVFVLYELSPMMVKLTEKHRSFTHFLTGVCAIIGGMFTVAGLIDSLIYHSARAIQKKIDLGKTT

Some of the results follow.

Compound in this assay: CC1Cc2ccccc2N1C(=O)C1CCCN(C1)C(=O)CCl (mixture of isomers) [TRIM25 ligand 11 (diastereomer mixture)]
The assay can be described thus: probe-labelled cysteine peptide fold change vs DMSO (competition) (log2 fold change); higher = less target engagement (more negative = stronger competition). The note with it: THP-1, incubation time: 4 h.
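Also: competitive chemoproteomic profiling in live THP-1 cells with an iodoacetamide desthiobiotin (IA-DTB) probe, comparing probe-labelled peptide intensities in compound-treated cells against DMSO-treated controls.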

Regarding “ERP29_P30040_157_GQGVYLGMPGCLPVYDALAGEFIR (UniProt P30040)”, the “probe-labelled cysteine peptide fold change” value (10 µM) is 0.0131 and the “probe-labelled cysteine peptide fold change” value (50 µM) was -0.246.

Turning to “FAM126A_Q9BYI3_300_CIQVEITPTSSR (UniProt Q9BYI3)”, the “probe-labelled cysteine peptide fold change” value reads like this: (10 µM) 0.0316; (50 µM) 0.0159.

Consider “EXOC1_Q9NV70_304_GIEACTNAADALLQCMNVALRPGHDLLLAVK (UniProt Q9NV70)”, for which the “probe-labelled cysteine peptide fold change” value is 0.0427 (10 µM) and 0.131 (50 µM).

With “EXOSC6_Q5RKV6_117_RAPPGGCEER (UniProt Q5RKV6)”, the “probe-labelled cysteine peptide fold change” value (10 µM) is -0.0462 and the “probe-labelled cysteine peptide fold change” value (50 µM) was -0.267.

Regarding “ERCC2_P18074_663_HAAQCVGR (UniProt P18074)”, the “probe-labelled cysteine peptide fold change” value was -0.0609 (10 µM) and 0.01 (50 µM).

For “ERCC4_Q92889_176_AFTDNAVAFDTGFCHVER (UniProt Q92889)”, the “probe-labelled cysteine peptide fold change” value by setting is: (10 µM) -0.267; (50 µM) -0.403.

As for “ESCO2_Q56NI9_392_SCGMIYTASNPEDEMQHVQHHHR (UniProt Q56NI9)”, the “probe-labelled cysteine peptide fold change” value reads like this: (10 µM) 0.271; (50 µM) 0.504.

Turning to “ERI1_Q8IV48_75_EIAITNGCINR (UniProt Q8IV48)”, the “probe-labelled cysteine peptide fold change” value runs as follows: (10 µM) -0.0532; (50 µM) -0.243.

Consider “EXOSC5_Q9NQT4_209_GLYSDTELQQCLAAAQAASQHVFR (UniProt Q9NQT4)”, for which the “probe-labelled cysteine peptide fold change” value was determined as 0.171 (10 µM) and 0.116 (50 µM).

For “ERCC2_P18074_116_NLCIHPEVTPLR (UniProt P18074)”, the “probe-labelled cysteine peptide fold change” value reads like this: (10 µM) 0.0662; (50 µM) 0.0279.

“ERO1B_Q86YB8_207_VWNSIYEENCFKPR (UniProt Q86YB8)”: the “probe-labelled cysteine peptide fold change” value (10 µM) was 3.02e-05 and the “probe-labelled cysteine peptide fold change” value (50 µM) worked out at 0.108.

Turning to “EZH2_Q15910_580_ECDPDLCLTCGAADHWDSK (UniProt Q15910)”, the “probe-labelled cysteine peptide fold change” value was -0.0517 (10 µM) and 0.0155 (50 µM).

“EXT2_Q93063_657_CPECTAIDGLSLDQTHMVER (UniProt Q93063)”: the “probe-labelled cysteine peptide fold change” value runs as follows: (10 µM) -0.118; (50 µM) 0.185.

Regarding “ERP44_Q9BS26_318_TPADCPVIAIDSFR (UniProt Q9BS26)”, the “probe-labelled cysteine peptide fold change” value runs as follows: (10 µM) -0.0103; (50 µM) 0.0027.

For “EXOSC3_Q9NQT5_184_DMEPEMVCIDSCGR (UniProt Q9NQT5)”, the “probe-labelled cysteine peptide fold change” value is -0.0603 (10 µM) and -0.242 (50 µM).

With “EXOSC8_Q96B26_233+234_LCCLHKPGGSGLTGAK (UniProt Q96B26)”, the “probe-labelled cysteine peptide fold change” value (10 µM) was -0.017 and the “probe-labelled cysteine peptide fold change” value (50 µM) is -0.115.

Consider “ERBIN_Q96RT1_68_QLFNCQSLHK (UniProt Q96RT1)”, for which the “probe-labelled cysteine peptide fold change” value is, setting by setting: (10 µM) 0.0538; (50 µM) 0.0456.

“ESCO2_Q56NI9_132_MQGKPVCSK (UniProt Q56NI9)”: the “probe-labelled cysteine peptide fold change” value by setting is: (10 µM) -0.148; (50 µM) -0.284.

For “FAH_P16930_396_KFLLDGDEVIITGYCQGDGYR (UniProt P16930)”, the “probe-labelled cysteine peptide fold change” value was -0.194 (10 µM) and -0.0982 (50 µM).

For “FAF2_Q96CS3_349_KLECLPPEPSPDDPESVK (UniProt Q96CS3)”, the “probe-labelled cysteine peptide fold change” value is, setting by setting: (10 µM) 0.0122; (50 µM) -0.106.

With “ETHE1_O95571_219_LTLSCEEFVK (UniProt O95571)”, the “probe-labelled cysteine peptide fold change” value (10 µM) was -0.0343 and the “probe-labelled cysteine peptide fold change” value (50 µM) is -0.0479.

For the target “EXOC5_O00471_111_VCHLGDQLEGVNTPR (UniProt O00471)”, the “probe-labelled cysteine peptide fold change” value runs as follows: (10 µM) -0.0403; (50 µM) 0.0212.

Take “ETFDH_Q16134_266_ANCEPQTYGIGLK (UniProt Q16134)”: the “probe-labelled cysteine peptide fold change” value (10 µM) stood at 0.139 and the “probe-labelled cysteine peptide fold change” value (50 µM) was found to be 0.0421.

Consider “EZH2_Q15910_588_ECDPDLCLTCGAADHWDSK (UniProt Q15910)”, for which the “probe-labelled cysteine peptide fold change” value runs as follows: (10 µM) -0.00347; (50 µM) 0.101.

Take “ERMP1_Q7Z2K6_204+222_DGAQHAVLANCHFDSVANSPGASDDAVSCSVMLEVLR (UniProt Q7Z2K6)”: the “probe-labelled cysteine peptide fold change” value amounted to 0.00966 (10 µM) and 0.0365 (50 µM).

As for “ESCO1_Q5FWF5_160_EQCSSTQSK (UniProt Q5FWF5)”, the “probe-labelled cysteine peptide fold change” value was -0.145 (10 µM) and -0.00324 (50 µM).

As to “EXOSC5_Q9NQT4_102_NTCEAVVLGTLHPR (UniProt Q9NQT4)”, the “probe-labelled cysteine peptide fold change” value is, setting by setting: (10 µM) 0.139; (50 µM) 0.235.

On to “ERGIC1_Q969X5_115_IPLNNGAGCR (UniProt Q969X5)”, for which the “probe-labelled cysteine peptide fold change” value reads like this: (10 µM) 0.0435; (50 µM) 0.0866.

In the case of “ERGIC3_Q9Y282_145_VEVTVFDPDSLDPDRCESCYGAEAEDIK (UniProt Q9Y282)”, the “probe-labelled cysteine peptide fold change” value runs as follows: (10 µM) 0.248; (50 µM) 0.359.

As to “EXOC1_Q9NV70_27_LLSIVNVCK (UniProt Q9NV70)”, the “probe-labelled cysteine peptide fold change” value is, setting by setting: (10 µM) 0.0577; (50 µM) -0.114.

Consider “FAH_P16930_193_PMGQMKPDDSKPPVYGACK (UniProt P16930)”, for which the “probe-labelled cysteine peptide fold change” value (10 µM) is -0.0322 and the “probe-labelled cysteine peptide fold change” value (50 µM) was -0.0762.

For the target “ETHE1_O95571_80_LLYAVNTHCHADHITGSGLLR (UniProt O95571)”, the “probe-labelled cysteine peptide fold change” value runs as follows: (10 µM) -0.0417; (50 µM) -0.0437.

Consider “EXOC5_O00471_517_LSECLQK (UniProt O00471)”, for which the “probe-labelled cysteine peptide fold change” value (10 µM) is -0.198 and the “probe-labelled cysteine peptide fold change” value (50 µM) was -0.101.

In the case of “ESD_P10768_181_SVSAFAPICNPVLCPWGK (UniProt P10768)”, the “probe-labelled cysteine peptide fold change” value is 0.15 (10 µM) and -0.151 (50 µM).

Take “ERO1A_Q96HE7_99+104_DCAVKPCQSDEVPDGIK (UniProt Q96HE7)”: the “probe-labelled cysteine peptide fold change” value was 0.0334 (10 µM) and -0.202 (50 µM).
